Measured values from PubChem BioAssay AID1671190 (National Center for Advancing Translational Sciences (NCATS), 2021).
“And” between values parts separate entries of the source, which are not always exact repeats. Equal entries are not always repeated. Hit rate of the full screen: of about 580,000 compounds, about 6,100 (1.1%) were called active. The shares of active, inactive and inconclusive entries below differ from those in the screen. The call rests on the fitted dose curve; in most records, active means well fitted inhibition curve with a large enough effect; inconclusive means small, poorly fitted or top-dose-only effect, or another doubt; inactive means no such curve, though single readings can be large or run the other way. Potencies of inconclusive entries are doubtful fits and often do not repeat.

Amino acid sequences for entries named in this document (tags omitted). A change or cut given only in a name is not applied to a line headed by its entry.
UniProt P18054: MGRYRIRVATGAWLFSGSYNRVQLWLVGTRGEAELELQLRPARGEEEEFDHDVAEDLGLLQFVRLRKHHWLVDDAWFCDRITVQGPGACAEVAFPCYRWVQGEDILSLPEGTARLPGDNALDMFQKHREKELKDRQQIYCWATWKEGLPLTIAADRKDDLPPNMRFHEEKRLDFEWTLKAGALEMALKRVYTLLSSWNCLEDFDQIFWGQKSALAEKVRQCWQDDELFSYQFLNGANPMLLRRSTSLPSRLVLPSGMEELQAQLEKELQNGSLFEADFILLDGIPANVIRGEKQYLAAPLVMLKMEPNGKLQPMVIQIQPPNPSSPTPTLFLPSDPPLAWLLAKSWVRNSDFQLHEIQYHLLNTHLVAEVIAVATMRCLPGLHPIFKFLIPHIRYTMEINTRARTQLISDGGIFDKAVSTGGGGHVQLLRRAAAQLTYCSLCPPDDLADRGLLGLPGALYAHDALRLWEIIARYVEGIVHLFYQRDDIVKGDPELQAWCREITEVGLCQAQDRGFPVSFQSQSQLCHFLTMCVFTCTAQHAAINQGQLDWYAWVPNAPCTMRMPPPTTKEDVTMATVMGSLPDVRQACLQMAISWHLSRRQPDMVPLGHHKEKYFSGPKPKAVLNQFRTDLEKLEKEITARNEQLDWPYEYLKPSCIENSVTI

Target: Polyunsaturated fatty acid lipoxygenase ALOX12 (Homo sapiens) (UniProt P18054)
Test: Primary qHTS assay for inhibitors of human arachidonate 12S-lipoxygenase (ALOX12): Round 2
Details: purified 12hLO, xylenol orange hydroperoxide absorbance; activity change, negative = inhibition: at 108 µM (top of the series) unless noted
Outline: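 Purified human 12hLO (150 nM final) in 25 mM Hepes, 0.01% Triton X-100, pH 7.0 was preincubated 15 min at room temperature with compound. Then 40 uM arachidonic acid was added, 30 min. Hydroperoxide was read by Fe-XO absorbance ratio 573/405 nm.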
On the % scale 0 is the no-effect control and ±100 the full control effect; potency means the concentration at half of the fitted maximal effect.

SMILES | Potency | activity change, negative = inhibition
COc1cccc(Cn2c(=O)cnc3cnc(Nc4cccc(OC)c4)nc32)c1 | inconclusive: 25.1 µM [inhibitor, single point] | –
CC(=O)/C(C#N)=C1\NC(=O)C(Cc2cc(Cl)ccc2Cl)S1 (configuration not stated) | inconclusive: 35.5 µM [inhibitor, partial curve, poor fit] | –
COc1ccc(N2C(c3cc(OC)cc(OC)c3)=Cc3ccccc3C2CC(C)=O)cc1 (configuration not stated) | inconclusive: 112 µM [inhibitor, single point] | –
CCc1ccc([C@@H]2CC=C(C(=O)O)[C@H](c3ccc(F)cc3)N2S(=O)(=O)c2ccc(C)cc2)cc1 | inconclusive: 44.7 µM [inhibitor, partial curve, poor fit] | –
FC(F)(F)c1nc(SCc2ccc(Cl)cc2Cl)n[nH]1 | inconclusive: 100 µM [inhibitor, partial curve, poor fit] | –
Cc1nnc(SC(C)C(=O)NC2CCCCC2)[nH]c1=O (configuration not stated) | – | inactive: 83.5%
Cc1cc(C)nc(OC(C(=O)O)C(OCCC(C)C)(c2ccccc2)c2ccccc2)n1 (configuration not stated) | inconclusive: 2.82 µM [inhibitor, partial curve, poor fit] | –
CCNC(=O)c1cccc(NC(=O)c2cnc3ccccc3n2)c1 | inconclusive: 1.58 µM [inhibitor, full curve, poor fit] | –
O=C(c1ccc2ncccc2c1)N1CC(CO)C2(CCNCC2)C1 (configuration not stated) | inconclusive: 2.82 µM [inhibitor, full curve, poor fit] | –
Cc1oc2c(c1C(=O)N1CCOCC1)CN(CCC(C)C)CC2 | inconclusive: 10 µM [inhibitor, full curve, poor fit] | –
Cc1ccc(S(=O)(=O)n2cccc2/C=C/[N+](=O)[O-])cc1 | active: 35.5 µM | –
CNC(=O)[C@@H](C1CC1)N1CCC[C@H]1C(=O)NC1CC1 | inconclusive: 22.4 µM [inhibitor, full curve, poor fit] | –
Cn1nc2n(c1=O)CCN(C(=O)c1ccc(F)cc1Cl)CC2 | – | inactive: 21.4%
Cc1nn(-c2ccc(F)cc2)c2nc(N)c(C#N)c(-c3ccc(O)c(O)c3)c12 | inconclusive: 4.47 µM [inhibitor, full curve, poor fit] | –
Cc1ccnc(Nc2nc(-c3ccc(O)cc3)cs2)c1 | inconclusive: 112 µM [inhibitor, single point] | –
N#Cc1ccc(CN2CCN(C(=O)CCNS(=O)(=O)c3ccc(F)c(Cl)c3)CC2)cc1 | – | inactive: 68%
Cc1cc(NC(=O)COc2ccccc2C(=O)c2cc(C#N)c(=O)n(C(C)C)c2)ccc1N1CCCC1 | inconclusive: 0.316 µM [inhibitor, full curve, poor fit] | –
CCOC(=O)c1ccc(S(=O)(=O)N2CCN(CC(O)COc3ccc(C#N)cc3)CC2)cc1 (configuration not stated) | inconclusive: 1.58 µM [inhibitor, full curve] | –
O=C(NC(=S)NC1CCCCC1)c1ccccc1 | active: 35.5 µM | –
CC1(C)Cc2c(sc3c2c(=N)n(Cc2ccco2)c(=O)n3Cc2ccc(F)cc2)CO1 | inconclusive: 22.4 µM [inhibitor, single point] | –
CCCCNC(=S)NNC(=O)CCn1cc(C)cn1 | – | inactive: 23%
COc1cccc(CNCC2(COc3ccccc3)C[C@@H](O)[C@@H](O)C2)c1 (some centres not stated) | – | inactive: -7% [at 176 µM]
COc1ccc(S(=O)(=O)NC[C@@H]2C=C(C)[C@H](CC(=O)NCc3ccc(C#N)cc3)C[C@H]2C(C)C)cc1 | active: 35.5 µM | –

Rewritten in markdown: part of the list above.

| SMILES | Potency | activity change, negative = inhibition |
| --- | --- | --- |
| Cc1cc(C)nc(OC(C(=O)O)C(OCCC(C)C)(c2ccccc2)c2ccccc2)n1 (configuration not stated) | inconclusive: 2.82 µM [inhibitor, partial curve, poor fit] | – |
| CCNC(=O)c1cccc(NC(=O)c2cnc3ccccc3n2)c1 | inconclusive: 1.58 µM [inhibitor, full curve, poor fit] | – |
| O=C(c1ccc2ncccc2c1)N1CC(CO)C2(CCNCC2)C1 (configuration not stated) | inconclusive: 2.82 µM [inhibitor, full curve, poor fit] | – |
| Cc1oc2c(c1C(=O)N1CCOCC1)CN(CCC(C)C)CC2 | inconclusive: 10 µM [inhibitor, full curve, poor fit] | – |
| Cc1ccc(S(=O)(=O)n2cccc2/C=C/[N+](=O)[O-])cc1 | active: 35.5 µM | – |
| CNC(=O)[C@@H](C1CC1)N1CCC[C@H]1C(=O)NC1CC1 | inconclusive: 22.4 µM [inhibitor, full curve, poor fit] | – |
| Cn1nc2n(c1=O)CCN(C(=O)c1ccc(F)cc1Cl)CC2 | – | inactive: 21.4% |
| Cc1nn(-c2ccc(F)cc2)c2nc(N)c(C#N)c(-c3ccc(O)c(O)c3)c12 | inconclusive: 4.47 µM [inhibitor, full curve, poor fit] | – |
| Cc1ccnc(Nc2nc(-c3ccc(O)cc3)cs2)c1 | inconclusive: 112 µM [inhibitor, single point] | – |
| N#Cc1ccc(CN2CCN(C(=O)CCNS(=O)(=O)c3ccc(F)c(Cl)c3)CC2)cc1 | – | inactive: 68% |
| Cc1cc(NC(=O)COc2ccccc2C(=O)c2cc(C#N)c(=O)n(C(C)C)c2)ccc1N1CCCC1 | inconclusive: 0.316 µM [inhibitor, full curve, poor fit] | – |
| CCOC(=O)c1ccc(S(=O)(=O)N2CCN(CC(O)COc3ccc(C#N)cc3)CC2)cc1 (configuration not stated) | inconclusive: 1.58 µM [inhibitor, full curve] | – |
| O=C(NC(=S)NC1CCCCC1)c1ccccc1 | active: 35.5 µM | – |

The results go on:

SMILES | Potency | activity change, negative = inhibition
Cc1ccc(CNC(=O)c2ccc(CSCc3ccccc3C)o2)cc1 | inconclusive: 14.1 µM [inhibitor, partial curve, poor fit] and inconclusive: 44.7 µM [inhibitor, partial curve, poor fit] | –
Cc1cc(N=Nc2ccc(Cl)cc2)cc(CN2CCOCC2)c1O | inconclusive: 79.4 µM [inhibitor, partial curve, poor fit] | –
COc1ccc(-c2nc3ccc(NS(=O)(=O)c4ccc(Cl)cc4)cc3o2)cc1 | inconclusive: 44.7 µM [inhibitor, partial curve] | –
C=CCNc1nc(C(=O)OCC(=O)NCC(=O)Nc2c(C)cc(C)cc2C)cs1 | inconclusive: 10 µM [inhibitor, partial curve, poor fit] | –
CCOc1ccc(NC(=O)CC2C(=O)NCCN2C(=O)c2ccc(Cl)cc2)cc1 (configuration not stated) | – | inactive: 2.56%
Cc1n[nH]c(C)c1Cl | inconclusive: 7.94 µM [inhibitor, full curve] | –
Cc1cccc(Nc2ncc(Cc3ccccc3C)s2)n1 | – | inactive: 12.2%
CCN(C(=O)c1ccc2c(c1)OCO2)C12CC3CC(CC(C3)C1)C2 | inconclusive: 89.1 µM [inhibitor, partial curve, poor fit] | –
CCC(CC)c1nnc(NC(=O)C2CC(=O)N(c3ccc4c(c3)OCCO4)C2)s1 (configuration not stated) | – | inactive: 27.1%
O=C1CSC(=S)N1N=Cc1ccc(Cl)cc1Cl | active: 35.5 µM | –
COCCn1c(=O)c2c(nc(-n3nc(C)cc3C)n2CCCc2ccccc2)n(C)c1=O | – | inactive: -5.6%
CCOC(=O)c1c(NC(=O)C2COc3ccccc3O2)sc2c1CC(C)(C)NC2(C)C (configuration not stated) | inconclusive: 79.4 µM [inhibitor, single point] | –
O=C(CCS(=O)(=O)c1cc(Br)cc2c1N(C(=O)C1CC1)CC2)NCc1ccccc1Cl | – | inactive: -8.37%
N#C/C(=C\c1cccc([N+](=O)[O-])c1)C(=O)NCc1ccc(Cl)cc1 | inconclusive: 35.5 µM [inhibitor, partial curve] | –
Cc1nc2cc(C(=O)OCC(=O)NC(C)C(C)C)ccc2n1-c1ccccc1 (configuration not stated) | – | inactive: 23%
COc1ccc(S(=O)(=O)N2CCCC2)cc1OC | – | inactive: 0%
CC1CCN(CCCCOc2ccccc2[N+](=O)[O-])CC1 | inconclusive: 0.316 µM [inhibitor, full curve, poor fit] | –
CN(C)C(=O)c1ccc(-c2cncnc2Nc2ccccc2)cc1 | inconclusive: 20 µM [inhibitor, partial curve, poor fit] | –
CCc1ccc(C(=O)OCC(=O)NC(=O)NC(C)C)cc1 | inconclusive: 112 µM [inhibitor, single point] | –
Oc1c(Cl)cc(Cl)c(Cl)c1Cc1c(O)c(Cl)cc(Cl)c1Cl | active: 7.08 µM | –
C=CCN1CCN(C(=O)c2nnn3cc(-c4ccccc4)[nH]c(=O)c23)CC1 | inconclusive: 7.94 µM [inhibitor, full curve, poor fit] | –
Cc1ncc(S(=O)(=O)c2ccc(Cl)cc2)c(N)n1 | inconclusive: 112 µM [inhibitor, partial curve, poor fit] | –
CCNC(=O)NS(=O)(=O)c1cnccc1Nc1cccc(Cl)c1 | – | inactive: -8.68%

SMILES | Potency | activity change, negative = inhibition
CN1CCN(S(=O)(=O)c2cccc(C(=O)Nc3cccc4cccnc34)c2)CC1 | inconclusive: 44.7 µM [inhibitor, partial curve, poor fit] | –
N#C/C(=C\c1cccc(OC(=O)c2ccc(Cl)cc2Cl)c1)C(=O)Nc1cccc(C(F)(F)F)c1 | inconclusive: 39.8 µM [inhibitor, partial curve, poor fit] | –
COc1ccccc1NS(=O)(=O)c1ccc(O)c(NC(=S)NCC2CCCO2)c1 (configuration not stated) | inconclusive: 44.7 µM [inhibitor, partial curve, poor fit] | –
CC(C)CNc1nc(=S)nc(N(C)C)[nH]1 | inconclusive: 178 µM [inhibitor, partial curve, poor fit] | –
CCOc1cccc2cc(C(=O)N3CCCCCC3)c(=O)oc12 | inconclusive: 6.31 µM [inhibitor, partial curve, poor fit] | –
CC(=O)c1ccc(NC(=O)Cn2cc(S(=O)(=O)Cc3ccccc3Cl)c3ccccc32)cc1 | inconclusive: 79.4 µM [inhibitor, partial curve, poor fit] | –
Oc1ccccc1CNC[C@H]1O[C@H](Cc2cc(CN3CCN(c4ccccc4)CC3)on2)CC[C@@H]1O | – | inactive: 14.9%
O=C(Nc1ccccc1N1CCN(c2ccc(F)cc2)CC1)C12CC3CC(CC(C3)C1)C2 | – | inactive: 0%
Clc1ccccc1OCCCCN1CCCCC1 | inconclusive: 0.398 µM [inhibitor, full curve, poor fit] | –
CCN1C(=O)COc2ccc(-c3nc(NC(=O)c4cccnc4)sc3C)cc21 | inconclusive: 100 µM [inhibitor, single point] | –
Cc1cc(NC(=O)c2cccc(Cl)c2)n[nH]1 | – | inactive: -12.2%
Cc1ncccc1C(=O)N1CCC(C(=O)N2CCCCCCNC(=O)CC2)CC1 | – | inactive: 28.7%
CCc1c(C)sc(NC(=O)c2cc(-c3ccncc3)nc3c(C)c(C)ccc23)c1C#N | – | inactive: -6.27%
Cc1cccc(N2CC(C(=O)Nc3cccc(S(=O)(=O)N4CCCCC4)c3)CC2=O)c1C (configuration not stated) | – | inactive: 1.1%
CCCC1C(c2ccco2)NC(c2ccco2)CC1(C)O (configuration not stated) | inconclusive: 0.316 µM [inhibitor, full curve, poor fit] | –
Cc1cc(O)c(/C=N/Nc2cccc(Cl)c2)c(=O)o1 | inconclusive: 5.62 µM [inhibitor, partial curve, poor fit] | –
CN(C)Cc1c(O)ccc2c(=O)c(-c3ccccc3Cl)coc12 | inconclusive: 35.5 µM [inhibitor, single point] | –
Cc1noc2c(-c3cccc(CO)c3)cc(-c3cccs3)nc12 | – | inactive: 12.5% [at 176 µM]
CS(=O)(=O)c1ccc2sc(NC(=O)c3cc4ccccc4o3)nc2c1 | inconclusive: 50.1 µM [inhibitor, single point] | –
COc1cccc(-n2c(C)c3c(OC)cccc(=O)c3c2C)c1 | inconclusive: 39.8 µM [inhibitor, partial curve, poor fit] | –
Nc1c(C(=O)NC2CC2)c2nc3ccccc3nc2n1-c1ccc2c(c1)OCO2 | – | inactive: 0%
